PubChem BioAssay AID652259 | Drosophila RNAi Screening Center | 2013

Aim: 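Identify new Wingless signalling regulators in fly cells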 (primary screen)
Cells: Drosophila clone 8 imaginal disc epithelial cells
Reagent: long dsRNA against Drosophila genes
Treatment: pathway stimulated by co-transfected Wingless expression plasmid
Measurement: 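Dual luciferase reads per well after Wingless plasmid stimulation: reporter firefly light and Renilla control light; activity is firefly divided by Renilla, a ratio not deposited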
Scale: firefly reporter light: higher = more Wg reporter light, before normalisation; Renilla control light: higher = more transfected or surviving cells
Hit rule: 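a knock-down is a candidate when at least two out of four statistical tests show it departing from its plate mean; one test alone signals a weak candidate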
Meaning of the calls: active = candidate regulator (raises or lowers reporter); inactive = not a candidate
The deposit covers about 22,000 reagents; this is a random part of those with a known target gene and a result. Of all reagents, 233 (1.1%) got an active call. 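Light values are raw, unnormalised plate reads; the ratio scores behind the reporter calls were not deposited.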 Unmarked entries are inactive. No sequences are given here. The record does not give: the amount of reagent, the time to read-out, the dose of the treatment.

Silencing of CG17572 [DRSC02629] came out at: firefly reporter light, replicate 1 = 2182; firefly reporter light, replicate 2 = 6821; Renilla control light, replicate 1 = 713; Renilla control light, replicate 2 = 1972. CG6738 [DRSC16104] scored firefly reporter light, replicate 1 = 18741; Renilla control light, replicate 1 = 14627. For Jon99Cii [DRSC16858], the values are firefly reporter light, replicate 1 = 10565; Renilla control light, replicate 1 = 4466. After knock-down of Jon99Cii [DRSC22574] the results were firefly reporter light, replicate 1 = 7.12e5; firefly reporter light, replicate 2 = 6.98e5; Renilla control light, replicate 1 = 3.11e5; Renilla control light, replicate 2 = 1.11e5. epsilonTry [DRSC07611] showed firefly reporter light, replicate 1 = 5018; Renilla control light, replicate 1 = 2699. Depletion of Zw10 [DRSC18793] resulted in: firefly reporter light, replicate 1 = 3809; firefly reporter light, replicate 2 = 7401; Renilla control light, replicate 1 = 1505; Renilla control light, replicate 2 = 2297.

Silencing of CG33169 [DRSC11853] gave: firefly reporter light, replicate 1 = 20108; Renilla control light, replicate 1 = 6176. seq [DRSC06863] gave firefly reporter light, replicate 1 = 7798; Renilla control light, replicate 1 = 1443. aqrs [DRSC14724] scored firefly reporter light, replicate 1 = 8790; Renilla control light, replicate 1 = 2693. Knock-down of CG4553 [DRSC15595] resulted in: firefly reporter light, replicate 1 = 24617; Renilla control light, replicate 1 = 17883. With knock-down of Ak6 [DRSC07274] the results were firefly reporter light, replicate 1 = 10768; Renilla control light, replicate 1 = 2684. After knock-down of CG7987 [DRSC16357] the results were firefly reporter light, replicate 1 = 4374; Renilla control light, replicate 1 = 1771.

For CG10431 [DRSC02055] the deposit lists firefly reporter light, replicate 1 = 1835; firefly reporter light, replicate 2 = 7366; Renilla control light, replicate 1 = 707; Renilla control light, replicate 2 = 2852. cpo [DRSC13265] gave firefly reporter light, replicate 1 = 5258; Renilla control light, replicate 1 = 2231. Against cpo [DRSC13273], the values are reporter change call, replicate 1 = Wg reporter activity raised; firefly reporter light, replicate 1 = 8037; Renilla control light, replicate 1 = 1928. Against cpo [DRSC14503] the deposit lists reporter change call, replicate 1 = Wg reporter activity raised (active); firefly reporter light, replicate 1 = 16524; Renilla control light, replicate 1 = 1355. After knock-down of cpo [DRSC15327], the screen gave firefly reporter light, replicate 1 = 11043; Renilla control light, replicate 1 = 1002. With knock-down of cpo [DRSC16926] the results were firefly reporter light, replicate 1 = 13869; Renilla control light, replicate 1 = 1233.

Teh4 [DRSC08457] showed firefly reporter light, replicate 1 = 4141; Renilla control light, replicate 1 = 2400. CG11041 [DRSC06025] scored firefly reporter light, replicate 1 = 5440; Renilla control light, replicate 1 = 2213. Silencing of spidey [DRSC17932] gave: firefly reporter light, replicate 1 = 20224; Renilla control light, replicate 1 = 9536. After knock-down of CG43131 [DRSC12046] the results were firefly reporter light, replicate 1 = 1571; Renilla control light, replicate 1 = 1001. With knock-down of CG13614 [DRSC14617], the screen gave firefly reporter light, replicate 1 = 11560; Renilla control light, replicate 1 = 10116. Depletion of CG11630 [DRSC03696] gave: firefly reporter light, replicate 1 = 2189; firefly reporter light, replicate 2 = 8373; Renilla control light, replicate 1 = 770; Renilla control light, replicate 2 = 2592.

Against CG31174 [DRSC13518], the values are firefly reporter light, replicate 1 = 2528; Renilla control light, replicate 1 = 1207.

2 entries from above, ordered by “firefly reporter light, replicate 1”, highest first:
spidey [DRSC17932] | firefly reporter light, replicate 1: 20224; Renilla control light, replicate 1: 9536
CG11041 [DRSC06025] | firefly reporter light, replicate 1: 5440; Renilla control light, replicate 1: 2213
